Among the data in paper PMC9789960 are binding values, retold here.

Chains of the proteins cited; added tags and fusions are not shown. Residues count along the entry.
UniProt Q9NZQ7, residues 19-290: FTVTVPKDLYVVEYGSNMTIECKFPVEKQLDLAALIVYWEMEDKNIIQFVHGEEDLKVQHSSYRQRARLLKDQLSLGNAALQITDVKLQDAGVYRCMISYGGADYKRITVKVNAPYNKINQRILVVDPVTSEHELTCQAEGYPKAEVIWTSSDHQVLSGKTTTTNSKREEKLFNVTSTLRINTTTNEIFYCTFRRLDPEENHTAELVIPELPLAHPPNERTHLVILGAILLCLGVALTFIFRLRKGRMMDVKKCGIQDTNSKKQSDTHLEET

For assay [1], the target named is T1, ZDHHC3 (human (endogenous in U251)) (UniProt Q9NYG2).
T1 sequence: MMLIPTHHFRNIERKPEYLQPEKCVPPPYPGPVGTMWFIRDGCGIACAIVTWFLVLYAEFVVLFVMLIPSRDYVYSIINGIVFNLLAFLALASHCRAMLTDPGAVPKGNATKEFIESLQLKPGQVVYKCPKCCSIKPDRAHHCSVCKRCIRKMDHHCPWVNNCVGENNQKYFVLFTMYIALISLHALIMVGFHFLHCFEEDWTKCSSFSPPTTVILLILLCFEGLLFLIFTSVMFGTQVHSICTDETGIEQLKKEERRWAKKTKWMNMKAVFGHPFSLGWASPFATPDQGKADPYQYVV
The experiment in a line: co-IP; U251 cell lysates incubated with antibody-coupled Dynabeads overnight at 4 °C; ZDHHC3 or PD-L1 as bait; western blot. (In general: A western blot detects proteins with antibodies after separation by electrophoresis.)

Assay [2] addresses programmed cell death ligand 1 (PD-L1) (human (endogenous in U251)) (UniProt Q9NZQ7). Described as above.

These are yes or no findings as the source states them, for the method shown. In cells and extracts the contact can be indirect. Some results given as binding are weak or reduced against the parent protein; the word gives no strength.

As for “programmed cell death ligand 1 (PD-L1) (from UniProt Q9NZQ7 19-290)”, the binding result in assay [1] is given as “binds”.

B1: ZDHHC3 (enzyme, UniProt Q9NYG2 1-299)
chain: MMLIPTHHFRNIERKPEYLQPEKCVPPPYPGPVGTMWFIRDGCGIACAIVTWFLVLYAEFVVLFVMLIPSRDYVYSIINGIVFNLLAFLALASHCRAMLTDPGAVPKGNATKEFIESLQLKPGQVVYKCPKCCSIKPDRAHHCSVCKRCIRKMDHHCPWVNNCVGENNQKYFVLFTMYIALISLHALIMVGFHFLHCFEEDWTKCSSFSPPTTVILLILLCFEGLLFLIFTSVMFGTQVHSICTDETGIEQLKKEERRWAKKTKWMNMKAVFGHPFSLGWASPFATPDQGKADPYQYVV
With B1, the binding entry in assay [2] was “binds”.
